Data reported in publication PMC5053635.
No constants are given. Whether binding was seen depends on the method and setting. Binding seen in cells or lysates may run through a third protein. Some results given as binding are weak or reduced against the parent protein; the word gives no strength.

The chains behind the UniProt entries cited, without tags or fusion partners. Where a name states a change or a piece, a line headed by the entry shows the natural chain unless it says otherwise. A line that says so, or that is headed by a name, gives the form on record, which may keep a tag or linker.
CrkI (P46108, form named): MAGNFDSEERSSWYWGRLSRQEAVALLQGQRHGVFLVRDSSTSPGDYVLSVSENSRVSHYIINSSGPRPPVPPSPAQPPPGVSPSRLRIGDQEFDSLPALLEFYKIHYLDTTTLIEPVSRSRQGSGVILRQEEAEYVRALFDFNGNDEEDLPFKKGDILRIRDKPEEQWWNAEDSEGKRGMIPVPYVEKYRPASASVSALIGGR
UniProt P49023: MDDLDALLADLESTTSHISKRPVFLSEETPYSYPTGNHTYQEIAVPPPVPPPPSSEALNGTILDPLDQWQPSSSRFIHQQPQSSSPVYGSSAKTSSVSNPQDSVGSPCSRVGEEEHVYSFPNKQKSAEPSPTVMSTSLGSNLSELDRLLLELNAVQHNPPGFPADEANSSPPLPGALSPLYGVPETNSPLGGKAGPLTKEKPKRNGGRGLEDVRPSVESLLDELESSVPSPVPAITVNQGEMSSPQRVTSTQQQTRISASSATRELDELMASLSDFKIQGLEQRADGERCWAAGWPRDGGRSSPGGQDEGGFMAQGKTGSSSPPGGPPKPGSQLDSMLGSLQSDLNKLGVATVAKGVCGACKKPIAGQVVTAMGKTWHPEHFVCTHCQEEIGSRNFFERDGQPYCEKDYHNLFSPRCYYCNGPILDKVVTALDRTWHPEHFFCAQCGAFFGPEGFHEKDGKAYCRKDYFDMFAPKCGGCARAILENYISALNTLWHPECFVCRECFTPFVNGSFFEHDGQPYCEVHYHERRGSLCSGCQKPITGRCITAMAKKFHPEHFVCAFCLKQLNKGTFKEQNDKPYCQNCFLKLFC

Molecular target: CrkI (human) (UniProt P46108)
Assay: co-IP; lysates of CrkI-expressing A549 cells; lysis buffer 0.5% NP-40, 10 mM Tris-HCl pH 7.4, 150 mM NaCl, 1 mM EDTA, 50 mM NaF, 1 mM Na3VO4; immunoprecipitation and immunoblotting; which protein was precipitated is not told

binding: binds
Substance: paxillin (from UniProt P49023 1-591)
